# Data: the supplement of paper PMC8728848
# Some of the results follow.
# B1: CBP21 (Serratia marcescens), O83009 (protein)
# chain: MNKTSRTLLSLGLLSAAMFGVSQQANAHGYVESPASRAYQCKLQLNTQCGSVQAEPQSVEGLKGFPQAGPADGHIASADKSTFFELDQQTPTRWNKLNLKTGPNSFTWKLTARHSTTSWRYFITKPNWDASQPLTRASFDLTPFCQFNDGGAIPAAQVTHQCNIPADRSGSHVILAVWDIADTANAFYQAIDVNLSK
# Experiments:
# Test in all cases: glycan array binding signal (z-score within array); higher = stronger binding
# Details in all cases: glycan notation: IUPAC condensed, linker removed; mutation: Y54A
# Gal(a1-3)Gal = biological target: Gal(a1-3)Gal
# How it was run: (§1)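 Glycan array data were curated from 3228 arrays in the Consortium for Functional Glycomics database and kept only where the protein sequence was available. Glycan names were converted to IUPAC-condensed notation, and columns mapping to the same glycan were averaged. The binding signal is a within-array Z-score, averaged across arrays of the same protein sequence at different concentrations or buffers and across linkers. Negative Z-scores can be read as non-binding.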
# Gal(a1-3)Gal(b1-3)GlcNAc = biological target: Gal(a1-3)Gal(b1-3)GlcNAc
# How it was run: as §1
# [1] = biological target: Gal(a1-3)Gal(b1-3)GlcNAc(b1-2)Man
# How it was run: as §1
# [2] = biological target: Gal(a1-3)Gal(b1-3)GlcNAc(b1-2)Man(a1-3)[Gal(a1-3)Gal(b1-3)GlcNAc(b1-2)Man(a1-6)]Man(b1-4)GlcNAc(b1-4)GlcNAc
# How it was run: as §1
# [3] = biological target: Gal(a1-3)Gal(b1-3)GlcNAc(b1-3)GalNAc
# How it was run: as §1
# [4] = biological target: Gal(a1-3)Gal(b1-3)GlcNAc(b1-6)GalNAc
# How it was run: as §1
# [5] = biological target: Gal(a1-3)Gal(b1-3)[Fuc(a1-4)]GlcNAc(b1-2)Man(a1-3)[Gal(a1-3)Gal(b1-3)[Fuc(a1-4)]GlcNAc(b1-2)Man(a1-6)]Man(b1-4)GlcNAc(b1-4)GlcNAc
# How it was run: as §1
# Gal(a1-3)Gal(b1-4)Glc = biological target: Gal(a1-3)Gal(b1-4)Glc
# How it was run: as §1
# Gal(a1-3)Gal(b1-4)GlcNAc = biological target: Gal(a1-3)Gal(b1-4)GlcNAc
# How it was run: as §1
# [6] = biological target: Gal(a1-3)Gal(b1-4)GlcNAc(b1-2)Man
# How it was run: as §1
# [7] = biological target: Gal(a1-3)Gal(b1-4)GlcNAc(b1-2)Man(a1-3)[Gal(a1-3)Gal(b1-4)GlcNAc(b1-2)Man(a1-6)]Man(b1-4)GlcNAc(b1-4)GlcNAc
# How it was run: as §1
# [8] = biological target: Gal(a1-3)Gal(b1-4)GlcNAc(b1-3)GalNAc
# How it was run: as §1
# [9] = biological target: Gal(a1-3)Gal(b1-4)GlcNAc(b1-6)GalNAc
# How it was run: as §1
# [10] = biological target: Gal(a1-3)Gal(b1-4)[Fuc(a1-3)]GlcNAc
# How it was run: as §1
# [11] = biological target: Gal(a1-3)Gal(b1-4)[Fuc(a1-3)]GlcNAc(b1-2)Man(a1-3)[Gal(a1-3)Gal(b1-4)[Fuc(a1-3)]GlcNAc(b1-2)Man(a1-6)]Man(b1-4)GlcNAc(b1-4)GlcNAc
# How it was run: as §1
# Gal(a1-3)GalNAc = biological target: Gal(a1-3)GalNAc
# How it was run: as §1
# [12] = biological target: Gal(a1-3)[Gal(a1-4)]Gal(b1-4)GlcNAc
# How it was run: as §1
# [13] = biological target: Gal(a1-4)Gal(b1-3)GlcNAc(b1-2)Man(a1-3)[Gal(a1-4)Gal(b1-3)GlcNAc(b1-2)Man(a1-6)]Man(b1-4)GlcNAc(b1-4)GlcNAc
# How it was run: as §1
# Gal(a1-4)Gal(b1-4)Glc = biological target: Gal(a1-4)Gal(b1-4)Glc
# How it was run: as §1
# Gal(a1-4)Gal(b1-4)GlcNAc = biological target: Gal(a1-4)Gal(b1-4)GlcNAc
# How it was run: as §1
# [14] = biological target: Gal(a1-4)Gal(b1-4)GlcNAc(b1-2)Man(a1-3)[Gal(a1-4)Gal(b1-4)GlcNAc(b1-2)Man(a1-6)]Man(b1-4)GlcNAc(b1-4)GlcNAc
# How it was run: as §1
# [15] = biological target: Gal(a1-4)Gal(b1-4)GlcNAc(b1-3)Gal(b1-4)Glc
# How it was run: as §1
# Gal(a1-4)GlcNAc = biological target: Gal(a1-4)GlcNAc
# How it was run: as §1
# Gal(a1-6)Glc = biological target: Gal(a1-6)Glc
# How it was run: as §1
# Gal(b1-2)Gal = biological target: Gal(b1-2)Gal
# How it was run: as §1
# Gal(b1-3)Gal = biological target: Gal(b1-3)Gal
# How it was run: as §1
# Gal(b1-3)Gal(b1-4)GlcNAc = biological target: Gal(b1-3)Gal(b1-4)GlcNAc
# How it was run: as §1
# Gal(b1-3)GalNAc = biological target: Gal(b1-3)GalNAc
# How it was run: as §1
# [16] = biological target: Gal(b1-3)GalNAc(a1-3)[Fuc(a1-2)]Gal(b1-4)Glc
# How it was run: as §1
# [17] = biological target: Gal(b1-3)GalNAc(a1-3)[Fuc(a1-2)]Gal(b1-4)GlcNAc
# How it was run: as §1
# Gal(b1-3)GalNAc(b1-3)Gal = biological target: Gal(b1-3)GalNAc(b1-3)Gal
# How it was run: as §1
# [18] = biological target: Gal(b1-3)GalNAc(b1-3)Gal(a1-4)Gal(b1-4)Glc
# How it was run: as §1
# [19] = biological target: Gal(b1-3)GalNAc(b1-4)Gal(b1-4)Glc
# How it was run: as §1
# [20] = biological target: Gal(b1-3)GalNAc(b1-4)[Neu5Ac(a2-3)]Gal(b1-4)Glc
# How it was run: as §1
# Gal(b1-3)GlcNAc = biological target: Gal(b1-3)GlcNAc
# How it was run: as §1
# [21] = biological target: Gal(b1-3)GlcNAc(a1-3)Gal(b1-4)GlcNAc
# How it was run: as §1
# [22] = biological target: Gal(b1-3)GlcNAc(a1-6)Gal(b1-4)GlcNAc
# How it was run: as §1
# Gal(b1-3)GlcNAc(b1-2)Man = biological target: Gal(b1-3)GlcNAc(b1-2)Man
# How it was run: as §1
binder,measurement,setting,value
B1,glycan array binding signal (z-score),Gal(a1-3)Gal,-0.452
same,glycan array binding signal (z-score),Gal(a1-3)Gal(b1-3)GlcNAc,-0.388
same,glycan array binding signal (z-score),[1],-0.297
same,glycan array binding signal (z-score),[2],0.038
same,glycan array binding signal (z-score),[3],-0.22
same,glycan array binding signal (z-score),[4],-0.706
same,glycan array binding signal (z-score),[5],-0.191
same,glycan array binding signal (z-score),Gal(a1-3)Gal(b1-4)Glc,-0.711
same,glycan array binding signal (z-score),Gal(a1-3)Gal(b1-4)GlcNAc,0.294
same,glycan array binding signal (z-score),[6],0.324
same,glycan array binding signal (z-score),[7],-0.395
same,glycan array binding signal (z-score),[8],-0.108
same,glycan array binding signal (z-score),[9],1.24
same,glycan array binding signal (z-score),[10],-0.883
same,glycan array binding signal (z-score),[11],-0.844
same,glycan array binding signal (z-score),Gal(a1-3)GalNAc,-0.365
same,glycan array binding signal (z-score),[12],-0.441
same,glycan array binding signal (z-score),[13],-0.679
same,glycan array binding signal (z-score),Gal(a1-4)Gal(b1-4)Glc,0.243
same,glycan array binding signal (z-score),Gal(a1-4)Gal(b1-4)GlcNAc,0.063
same,glycan array binding signal (z-score),[14],-0.585
same,glycan array binding signal (z-score),[15],-0.655
same,glycan array binding signal (z-score),Gal(a1-4)GlcNAc,1.9
same,glycan array binding signal (z-score),Gal(a1-6)Glc,0.171
same,glycan array binding signal (z-score),Gal(b1-2)Gal,0.343
same,glycan array binding signal (z-score),Gal(b1-3)Gal,-0.635
same,glycan array binding signal (z-score),Gal(b1-3)Gal(b1-4)GlcNAc,-0.869
same,glycan array binding signal (z-score),Gal(b1-3)GalNAc,-0.519
same,glycan array binding signal (z-score),[16],0.552
same,glycan array binding signal (z-score),[17],0.002
same,glycan array binding signal (z-score),Gal(b1-3)GalNAc(b1-3)Gal,-0.631
same,glycan array binding signal (z-score),[18],0.231
same,glycan array binding signal (z-score),[19],0.691
same,glycan array binding signal (z-score),[20],-1.06
same,glycan array binding signal (z-score),Gal(b1-3)GlcNAc,0.006
same,glycan array binding signal (z-score),[21],-0.455
same,glycan array binding signal (z-score),[22],-0.279
same,glycan array binding signal (z-score),Gal(b1-3)GlcNAc(b1-2)Man,-0.13

# Laid out differently: results already given
binder	measurement	setting	value
B1	glycan array binding signal (z-score)	[5]	-0.191
same	glycan array binding signal (z-score)	Gal(a1-3)Gal(b1-4)Glc	-0.711
same	glycan array binding signal (z-score)	Gal(a1-3)Gal(b1-4)GlcNAc	0.294
